The supplement of paper PMC8728848
The other results are listed elsewhere or left out.

Key:
Assay in all cases: glycan array binding signal (z-score within array); higher = stronger binding
Details in all cases: glycan notation: IUPAC condensed, linker removed
[1] = target: Gal(b1-3)GlcNAc(b1-3)Gal(b1-4)GlcNAc(b1-2)[Gal(b1-3)GlcNAc(b1-3)Gal(b1-4)GlcNAc(b1-6)]Man(a1-6)[Gal(b1-3)GlcNAc(b1-3)Gal(b1-4)GlcNAc(b1-2)Man(a1-3)]Man(b1-4)GlcNAc(b1-4)[Fuc(a1-6)]GlcNAc
Summary of the method: (§1)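 Glycan array data came from 3228 arrays in the Consortium for Functional Glycomics database, and only arrays with an available protein sequence were kept. Glycan names were put into IUPAC-condensed notation, and columns mapping to the same glycan were averaged. The binding signal is a within-array Z-score, averaged across arrays of one protein sequence run at different concentrations or buffers and across linkers. A negative Z-score can be read as non-binding.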

[2] = target: Gal(b1-3)GlcNAc(b1-3)Gal(b1-4)GlcNAc(b1-3)Gal(b1-4)GlcNAc(b1-2)[Gal(b1-3)GlcNAc(b1-3)Gal(b1-4)GlcNAc(b1-3)Gal(b1-4)GlcNAc(b1-6)]Man(a1-6)[Gal(b1-3)GlcNAc(b1-3)Gal(b1-4)GlcNAc(b1-3)Gal(b1-4)GlcNAc(b1-2)Man(a1-3)]Man(b1-4)GlcNAc(b1-4)[Fuc(a1-6)]GlcNAc
Summary of the method: as §1

[3] = target: Gal(b1-3)GlcNAc(b1-3)Gal(b1-4)GlcNAc(b1-6)[Gal(b1-3)GlcNAc(b1-3)]Gal(b1-4)Glc
Summary of the method: as §1

[4] = target: Gal(b1-3)GlcNAc(b1-3)Gal(b1-4)[Fuc(a1-3)]GlcNAc
Summary of the method: as §1

[5] = target: Gal(b1-3)GlcNAc(b1-3)Gal(b1-4)[Fuc(a1-3)]GlcNAc(b1-6)[Gal(b1-3)GlcNAc(b1-3)]Gal(b1-4)Glc
Summary of the method: as §1

[6] = target: Gal(b1-3)GlcNAc(b1-3)GalNAc
Summary of the method: as §1

[7] = target: Gal(b1-3)GlcNAc(b1-6)Gal(b1-4)GlcNAc
Summary of the method: as §1

[8] = target: Gal(b1-3)GlcNAc(b1-6)GalNAc
Summary of the method: as §1

[9] = target: Gal(b1-3)GlcNAc(b1-6)[Gal(b1-3)]GalNAc
Summary of the method: as §1

Gal(b1-3)GlcNAc6S = target: Gal(b1-3)GlcNAc6S
Summary of the method: as §1

[10] = target: Gal(b1-3)[Fuc(a1-4)]GlcNAc
Summary of the method: as §1

[11] = target: Gal(b1-3)[Fuc(a1-4)]GlcNAc(b1-2)Man
Summary of the method: as §1

[12] = target: Gal(b1-3)[Fuc(a1-4)]GlcNAc(b1-2)Man(a1-3)[Gal(b1-3)[Fuc(a1-4)]GlcNAc(b1-2)Man(a1-6)]Man(b1-4)GlcNAc(b1-4)[Fuc(a1-6)]GlcNAc
Summary of the method: as §1

[13] = target: Gal(b1-3)[Fuc(a1-4)]GlcNAc(b1-3)Gal(b1-3)[Fuc(a1-4)]GlcNAc
Summary of the method: as §1

[14] = target: Gal(b1-3)[Fuc(a1-4)]GlcNAc(b1-3)Gal(b1-4)[Fuc(a1-3)]GlcNAc
Summary of the method: as §1

[15] = target: Gal(b1-3)[Fuc(a1-4)]GlcNAc(b1-6)GalNAc
Summary of the method: as §1

[16] = target: Gal(b1-3)[GlcNAc(b1-6)]GalNAc
Summary of the method: as §1

[17] = target: Gal(b1-3)[Neu5Ac(a2-6)]GalNAc
Summary of the method: as §1

[18] = target: Gal(b1-3)[Neu5Ac(a2-6)]GlcNAc(b1-4)Gal(b1-4)Glc
Summary of the method: as §1

[19] = target: Gal(b1-3)[Neu5Ac(b2-6)]GalNAc
Summary of the method: as §1

Gal(b1-4)Gal = target: Gal(b1-4)Gal
Summary of the method: as §1

[20] = target: Gal(b1-4)GalNAc(a1-3)[Fuc(a1-2)]Gal(b1-4)GlcNAc
Summary of the method: as §1

[21] = target: Gal(b1-4)GalNAc(b1-3)[Fuc(a1-2)]Gal(b1-4)GlcNAc
Summary of the method: as §1

Gal(b1-4)Glc = target: Gal(b1-4)Glc
Summary of the method: as §1

Gal(b1-4)Glc6S = target: Gal(b1-4)Glc6S
Summary of the method: as §1

Gal(b1-4)GlcNAc = target: Gal(b1-4)GlcNAc
Summary of the method: as §1

[22] = target: Gal(b1-4)GlcNAc(a1-6)Gal(b1-4)GlcNAc
Summary of the method: as §1

Gal(b1-4)GlcNAc(b1-2)Man = target: Gal(b1-4)GlcNAc(b1-2)Man
Summary of the method: as §1

[23] = target: Gal(b1-4)GlcNAc(b1-2)Man(a1-3)Man(b1-4)GlcNAc(b1-4)GlcNAc
Summary of the method: as §1

[24] = target: Gal(b1-4)GlcNAc(b1-2)Man(a1-3)[Gal(b1-4)GlcNAc(b1-2)Man(a1-6)]Man(b1-4)GlcNAc(b1-4)GlcNAc
Summary of the method: as §1

[25] = target: Gal(b1-4)GlcNAc(b1-2)Man(a1-3)[Gal(b1-4)GlcNAc(b1-2)Man(a1-6)]Man(b1-4)GlcNAc(b1-4)[Fuc(a1-6)]GlcNAc
Summary of the method: as §1

[26] = target: Gal(b1-4)GlcNAc(b1-2)Man(a1-3)[Gal(b1-4)GlcNAc(b1-2)Man(a1-6)][Gal(b1-4)GlcNAc(b1-4)]Man(b1-4)GlcNAc(b1-4)[Fuc(a1-6)]GlcNAc
Summary of the method: as §1

[27] = target: Gal(b1-4)GlcNAc(b1-2)Man(a1-3)[Gal(b1-4)GlcNAc(b1-2)Man(a1-6)][GlcNAc(b1-4)]Man(b1-4)GlcNAc(b1-4)[Fuc(a1-6)]GlcNAc
Summary of the method: as §1

[28] = target: Gal(b1-4)GlcNAc(b1-2)Man(a1-3)[GlcNAc(b1-2)Man(a1-6)]Man(b1-4)GlcNAc(b1-4)GlcNAc
Summary of the method: as §1

[29] = target: Gal(b1-4)GlcNAc(b1-2)Man(a1-3)[GlcNAc(b1-4)][Gal(b1-4)GlcNAc(b1-2)Man(a1-6)]Man(b1-4)GlcNAc(b1-4)GlcNAc
Summary of the method: as §1

[30] = target: Gal(b1-4)GlcNAc(b1-2)Man(a1-3)[Man(a1-6)]Man(b1-4)GlcNAc(b1-4)GlcNAc
Summary of the method: as §1

[31] = target: Gal(b1-4)GlcNAc(b1-2)Man(a1-6)Man(b1-4)GlcNAc(b1-4)GlcNAc
Summary of the method: as §1

[32] = target: Gal(b1-4)GlcNAc(b1-2)Man(a1-6)[GlcNAc(b1-2)Man(a1-3)]Man(b1-4)GlcNAc(b1-4)GlcNAc
Summary of the method: as §1

B1: AntigenI/IIA3VP1 (Streptococcus mutans), C9E3B4 (protein)
chain: AANEADYQAKLTAYQTELARVQKANADAKAAYEAAVAANNAANAALTAENTAIKKRNADAKADYEAKLAKYQADLAKYQKDLADYPVKLKAYEDEQASIKAALAELEKHKNEDGNLTEPSAQNLVYDLEPNANLSLTTDGKFLKASAVDDAFSKSTSKAKYDQKILQLDDLDITNLEQSNDVASSMELYGNFGDKAGWSTTVSNNSQVKWGSVLLERGQSATATYTNLQNSYYNGKKISKIVYKYTVDPKSKFQGQKVWLGIFTDPTLGVFASAYTGQVEKNTSIFIKNEFTFYDEDGKPINFDNALLSVASLNREHNSIEMAKDYSGKFVKISGSSIGEKNGMIYATDTLNFKQGEGGSRWTMYKNSQAGSGWDSSDAPNSWYGAGAIKMSGPNNYVTVGATSATNVMPVSDMPVVPGKDNTDGKKPNIWYSLNGKIRAVNVPKVTKEKPTPPVKPTAPTKPTYETEKPLKPAPVAPNYEKEPTPPTRLEHHHHHH
- glycan array binding signal (z-score) [1]: 1.15
- glycan array binding signal (z-score) [2]: 5.61
- glycan array binding signal (z-score) [3]: -1.08
- glycan array binding signal (z-score) [4]: -0.402
- glycan array binding signal (z-score) [5]: -0.769
- glycan array binding signal (z-score) [6]: -0.215
- glycan array binding signal (z-score) [7]: -0.879
- glycan array binding signal (z-score) [8]: -1.15
- glycan array binding signal (z-score) [9]: -0.091
- glycan array binding signal (z-score) (Gal(b1-3)GlcNAc6S): 0.094
- glycan array binding signal (z-score) [10]: -0.532
- glycan array binding signal (z-score) [11]: 0.065
- glycan array binding signal (z-score) [12]: 0.264
- glycan array binding signal (z-score) [13]: -1.39
- glycan array binding signal (z-score) [14]: 0.182
- glycan array binding signal (z-score) [15]: 3.1
- glycan array binding signal (z-score) [16]: 0.649
- glycan array binding signal (z-score) [17]: -0.775
- glycan array binding signal (z-score) [18]: -0.671
- glycan array binding signal (z-score) [19]: -1.08
- glycan array binding signal (z-score) (Gal(b1-4)Gal): 0.659
- glycan array binding signal (z-score) [20]: -0.098
- glycan array binding signal (z-score) [21]: -1.5
- glycan array binding signal (z-score) (Gal(b1-4)Glc): 0.298
- glycan array binding signal (z-score) (Gal(b1-4)Glc6S): 1.2
- glycan array binding signal (z-score) (Gal(b1-4)GlcNAc): -0.744
- glycan array binding signal (z-score) [22]: 1.05
- glycan array binding signal (z-score) (Gal(b1-4)GlcNAc(b1-2)Man): 0.599
- glycan array binding signal (z-score) [23]: -0.226
- glycan array binding signal (z-score) [24]: -1.12
- glycan array binding signal (z-score) [25]: 1.81
- glycan array binding signal (z-score) [26]: -0.213
- glycan array binding signal (z-score) [27]: -1.22
- glycan array binding signal (z-score) [28]: -0.073
- glycan array binding signal (z-score) [29]: -0.555
- glycan array binding signal (z-score) [30]: 1.67
- glycan array binding signal (z-score) [31]: 0.216
- glycan array binding signal (z-score) [32]: -0.498
